Source: article PMC10238197, “Deafness‐Associated ADGRV1 Mutation Impairs USH2A Stability through Improper Phosphorylation of WHRN and WDSUB1 Recruitment” (Advanced Science, 2023)
Numbering of substitutions follows the chain as printed. Results are given in words; binding and its absence hold for the method and conditions named. Binding seen in cells or lysates may run through a third protein. Some results given as binding are weak or reduced against the parent protein; the word gives no strength. Tags and fused reporters may be left off the sequences shown.

Protein sequences, listed by entry. Tags and fused reporters are not part of them. Residues count along the entry.
UniProt Q8VHN7, residues 4333-6298: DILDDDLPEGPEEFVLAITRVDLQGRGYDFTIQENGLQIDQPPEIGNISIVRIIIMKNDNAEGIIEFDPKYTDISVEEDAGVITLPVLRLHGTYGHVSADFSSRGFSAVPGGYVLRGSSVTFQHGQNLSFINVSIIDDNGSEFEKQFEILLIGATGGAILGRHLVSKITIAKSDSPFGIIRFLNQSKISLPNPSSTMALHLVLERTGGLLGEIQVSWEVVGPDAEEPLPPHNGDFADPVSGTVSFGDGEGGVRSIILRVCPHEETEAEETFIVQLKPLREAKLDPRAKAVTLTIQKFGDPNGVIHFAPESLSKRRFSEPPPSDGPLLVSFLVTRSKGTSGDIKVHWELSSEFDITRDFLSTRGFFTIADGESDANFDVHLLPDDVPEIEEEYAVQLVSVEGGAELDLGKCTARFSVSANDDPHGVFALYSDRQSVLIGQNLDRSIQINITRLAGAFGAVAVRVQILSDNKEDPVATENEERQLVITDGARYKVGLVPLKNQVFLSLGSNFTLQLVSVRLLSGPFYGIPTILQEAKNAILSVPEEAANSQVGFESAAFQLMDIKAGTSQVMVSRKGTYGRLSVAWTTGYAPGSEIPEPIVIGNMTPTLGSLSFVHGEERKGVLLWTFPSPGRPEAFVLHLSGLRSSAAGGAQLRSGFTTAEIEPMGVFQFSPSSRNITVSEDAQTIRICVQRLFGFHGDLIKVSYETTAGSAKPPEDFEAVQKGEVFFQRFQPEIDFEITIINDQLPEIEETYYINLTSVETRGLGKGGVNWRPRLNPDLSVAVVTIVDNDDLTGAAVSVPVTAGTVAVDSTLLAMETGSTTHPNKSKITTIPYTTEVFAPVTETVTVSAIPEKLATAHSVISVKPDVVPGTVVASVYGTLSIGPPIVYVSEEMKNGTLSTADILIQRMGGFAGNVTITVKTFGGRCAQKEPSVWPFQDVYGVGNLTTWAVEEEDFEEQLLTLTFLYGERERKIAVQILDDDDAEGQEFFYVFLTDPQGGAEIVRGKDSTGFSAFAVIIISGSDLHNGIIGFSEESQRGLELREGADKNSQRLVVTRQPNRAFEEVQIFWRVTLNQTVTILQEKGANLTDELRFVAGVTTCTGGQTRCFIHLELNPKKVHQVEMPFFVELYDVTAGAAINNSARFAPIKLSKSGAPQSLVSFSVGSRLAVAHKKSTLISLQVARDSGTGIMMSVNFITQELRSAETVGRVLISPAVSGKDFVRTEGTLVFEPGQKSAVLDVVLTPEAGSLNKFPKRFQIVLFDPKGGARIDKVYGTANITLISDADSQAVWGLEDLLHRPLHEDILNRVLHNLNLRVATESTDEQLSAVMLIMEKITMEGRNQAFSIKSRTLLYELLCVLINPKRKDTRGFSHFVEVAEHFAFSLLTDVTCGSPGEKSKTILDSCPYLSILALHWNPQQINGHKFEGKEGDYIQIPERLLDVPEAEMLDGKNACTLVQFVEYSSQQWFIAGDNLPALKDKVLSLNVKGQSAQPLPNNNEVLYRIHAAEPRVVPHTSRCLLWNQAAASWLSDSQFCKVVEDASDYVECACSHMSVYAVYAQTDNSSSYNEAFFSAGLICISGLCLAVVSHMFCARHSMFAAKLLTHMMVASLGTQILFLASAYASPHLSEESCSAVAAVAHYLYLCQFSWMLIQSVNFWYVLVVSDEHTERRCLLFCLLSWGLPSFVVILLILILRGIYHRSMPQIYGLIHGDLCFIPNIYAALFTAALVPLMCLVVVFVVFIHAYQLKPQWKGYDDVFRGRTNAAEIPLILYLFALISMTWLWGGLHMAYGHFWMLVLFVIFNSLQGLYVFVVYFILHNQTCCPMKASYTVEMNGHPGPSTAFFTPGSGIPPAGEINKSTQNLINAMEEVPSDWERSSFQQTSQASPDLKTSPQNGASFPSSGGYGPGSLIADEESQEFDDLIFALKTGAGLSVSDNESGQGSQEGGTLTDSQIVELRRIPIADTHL

Tests used:
Assay in all cases: FRET or BRET; intermolecular FlAsH-BRET saturation in HEK293 cells: fixed amount of WHRN-Nluc, increasing ADGRV1-FlAsH or USH2A-FlAsH; 2.5 µM FlAsH-EDT2, 5 µM coelenterazine-h; net BRET Em530/Em485
[1] = target: T1, WHRN-Nluc (L-Z2) K348A (mouse) (UniProt Q80VW5)
T1 sequence: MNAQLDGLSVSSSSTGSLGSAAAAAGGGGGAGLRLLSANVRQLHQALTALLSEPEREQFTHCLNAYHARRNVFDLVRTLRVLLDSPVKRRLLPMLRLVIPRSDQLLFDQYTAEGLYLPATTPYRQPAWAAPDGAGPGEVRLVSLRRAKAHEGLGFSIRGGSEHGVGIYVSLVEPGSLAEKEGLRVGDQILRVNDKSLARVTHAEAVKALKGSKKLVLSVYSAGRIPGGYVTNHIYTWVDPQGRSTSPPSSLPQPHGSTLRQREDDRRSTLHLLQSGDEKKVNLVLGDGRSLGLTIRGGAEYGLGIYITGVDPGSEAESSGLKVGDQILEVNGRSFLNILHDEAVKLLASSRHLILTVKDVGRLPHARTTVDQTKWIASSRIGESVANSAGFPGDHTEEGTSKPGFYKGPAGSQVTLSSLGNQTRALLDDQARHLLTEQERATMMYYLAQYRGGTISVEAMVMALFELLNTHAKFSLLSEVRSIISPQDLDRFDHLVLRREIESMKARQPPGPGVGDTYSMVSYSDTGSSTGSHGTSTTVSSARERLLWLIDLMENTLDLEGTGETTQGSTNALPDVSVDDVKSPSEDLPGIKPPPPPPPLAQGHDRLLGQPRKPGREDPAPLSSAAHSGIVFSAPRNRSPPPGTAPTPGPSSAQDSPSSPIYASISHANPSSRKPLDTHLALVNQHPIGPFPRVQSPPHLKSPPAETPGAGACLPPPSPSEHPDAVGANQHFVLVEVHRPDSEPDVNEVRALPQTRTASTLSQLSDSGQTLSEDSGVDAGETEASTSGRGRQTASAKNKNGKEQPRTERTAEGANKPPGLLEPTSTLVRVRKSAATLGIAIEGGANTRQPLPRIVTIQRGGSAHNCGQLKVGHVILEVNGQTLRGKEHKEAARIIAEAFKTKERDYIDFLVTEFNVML

[2] = target: T2, WHRN-Nluc (L-Z2) D341A (mouse) (UniProt Q80VW5)
T2 sequence: T1 sequence with D341A, A348K

WHRN-Nluc L-Z2 (mouse) = target: T3, WHRN-Nluc L-Z2 (mouse) (UniProt Q80VW5)
T3 sequence: T1 sequence with A348K

Measured: binding

ADGRV1-ICL3-FlAsH (from UniProt Q8VHN7 4333-6298) (receptor)
binds: all assays above
